Reference: PubChem BioAssay AID686943 (Drosophila RNAi Screening Center, 2013)
In all, the deposit lists about 23,000 reagents; below is a random part of those with a known target gene and a result. 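Extra replicates exist only for a retested subset of genes; insulin dose and duration not given; both raised and lowered dpERK matter.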 The numbers tell different reagents against one gene apart. A plus sign joins genes that one reagent is predicted to hit. Not all columns of the deposit are shown. Reagent sequences are not shown. The record does not give: the amount of reagent, the time to read-out.

Screen: 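Fly genes whose loss alters ERK activation after insulin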 (primary screen)
Cell system: Drosophila S2R+ haemocyte-like cells expressing YFP-tagged ERK (Rolled)
Reagents: long dsRNA against Drosophila genes
Treatment: insulin stimulation versus unstimulated cells; dose and duration not given
Measured: 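Per-plate z-scores of phospho-ERK immunostaining normalised to YFP-tagged ERK, measured with and without insulin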
Direction: replicate 1, z-score of dpERK with insulin and replicate 2, z-score of dpERK with insulin: higher = more active ERK per ERK-YFP after insulin

CG6996 (GeneID 40212)
- replicate 1, z-score of dpERK with insulin: 0.7
- replicate 2, z-score of dpERK with insulin: -0.43

Nup35 (GeneID 32851)
- replicate 1, z-score of dpERK with insulin: -1.2
- replicate 2, z-score of dpERK with insulin: -0.57

l(3)05822 (GeneID 47260)
- replicate 1, z-score of dpERK with insulin: -1.35
- replicate 2, z-score of dpERK with insulin: 0.07

Mst84B (GeneID 40840)
- replicate 1, z-score of dpERK with insulin: 0.8
- replicate 2, z-score of dpERK with insulin: -0.28

Ekar (GeneID 43806)
- replicate 1, z-score of dpERK with insulin: -1.14
- replicate 2, z-score of dpERK with insulin: -0.11

Eaf6 (GeneID 38637)
- replicate 1, z-score of dpERK with insulin: 0.56
- replicate 2, z-score of dpERK with insulin: 0.69

CG10513 (GeneID 43051)
- replicate 1, z-score of dpERK with insulin: 0.01
- replicate 2, z-score of dpERK with insulin: 0.83

CG42245 + MEP-1 #1
- replicate 1, z-score of dpERK with insulin: -0.65
- replicate 2, z-score of dpERK with insulin: -0.68

CG42245 + MEP-1 #2
- replicate 1, z-score of dpERK with insulin: 1.39
- replicate 2, z-score of dpERK with insulin: 0.27

CG42245 + MEP-1 #3
- replicate 1, z-score of dpERK with insulin: -2.03
- replicate 2, z-score of dpERK with insulin: -2.63

ZC3H3 (GeneID 38968)
- replicate 1, z-score of dpERK with insulin: -1.27
- replicate 2, z-score of dpERK with insulin: 0.26

mRpS33 (GeneID 41991)
- replicate 1, z-score of dpERK with insulin: -0.3
- replicate 2, z-score of dpERK with insulin: 0.81

ms(2)35Ci (GeneID 49529)
- replicate 1, z-score of dpERK with insulin: 0.27
- replicate 2, z-score of dpERK with insulin: 0.81

Gbp2 (GeneID 36937)
- replicate 1, z-score of dpERK with insulin: 0.34
- replicate 2, z-score of dpERK with insulin: 0.89

CG42496 + Ppcdc
- replicate 1, z-score of dpERK with insulin: 3.19
- replicate 2, z-score of dpERK with insulin: 2.89

Copied from the list.
Under “replicate 1, z-score of dpERK with insulin”, CG42245 + MEP-1 #2 has 1.39
Value for Gbp2 (GeneID 36937) under “replicate 2, z-score of dpERK with insulin”: 0.89

More entries:
Alp12 (GeneID 35218)
- replicate 1, z-score of dpERK with insulin: 0.11
- replicate 2, z-score of dpERK with insulin: -0.02

CG5397 (GeneID 33313)
- replicate 1, z-score of dpERK with insulin: 0.02
- replicate 2, z-score of dpERK with insulin: -0.33

CG42288 (GeneID 36559)
- replicate 1, z-score of dpERK with insulin: 0.34
- replicate 2, z-score of dpERK with insulin: 1.09

Chro (GeneID 40508)
- replicate 1, z-score of dpERK with insulin: -1.67
- replicate 2, z-score of dpERK with insulin: -1.02

Usp12-46 (GeneID 42702)
- replicate 1, z-score of dpERK with insulin: -0.01
- replicate 2, z-score of dpERK with insulin: -0.4

CG32022 (GeneID 317826)
- replicate 1, z-score of dpERK with insulin: 0.86
- replicate 2, z-score of dpERK with insulin: 1.63

PGRP-LB (GeneID 41379)
- replicate 1, z-score of dpERK with insulin: 0.28
- replicate 2, z-score of dpERK with insulin: -0.25

CG5532 (GeneID 37761)
- replicate 1, z-score of dpERK with insulin: 1.02
- replicate 2, z-score of dpERK with insulin: -0.16

CG16717 (GeneID 39129)
- replicate 1, z-score of dpERK with insulin: 0.64
- replicate 2, z-score of dpERK with insulin: 0.19

Mlp84B (GeneID 40849)
- replicate 1, z-score of dpERK with insulin: -0.05
- replicate 2, z-score of dpERK with insulin: 0.01

CG3356 (GeneID 37876)
- replicate 1, z-score of dpERK with insulin: 0.48
- replicate 2, z-score of dpERK with insulin: 0.69

CG6761 (GeneID 39134)
- replicate 1, z-score of dpERK with insulin: 1.27
- replicate 2, z-score of dpERK with insulin: 0.89

CG15073 (GeneID 37155)
- replicate 1, z-score of dpERK with insulin: 1.07
- replicate 2, z-score of dpERK with insulin: 0.45

CG6962 (GeneID 41436)
- replicate 1, z-score of dpERK with insulin: 1.5
- replicate 2, z-score of dpERK with insulin: -0.52

ND-30 (GeneID 38378)
- replicate 1, z-score of dpERK with insulin: -0.23
- replicate 2, z-score of dpERK with insulin: -0.55

GABA-B-R3 (GeneID 33248)
- replicate 1, z-score of dpERK with insulin: -0.06
- replicate 2, z-score of dpERK with insulin: 0.56
